One molecule from patent publication US20220049016A1 can be followed below.

Amino acid sequences for entries named in this document (tags omitted). Residues count along the entry.
UniProt Q15046, residues 1-72: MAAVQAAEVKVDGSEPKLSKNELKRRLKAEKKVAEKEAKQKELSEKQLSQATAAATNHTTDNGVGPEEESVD

This test concerns the target GST-conjugated KRS (1-72) peptide (human) (UniProt Q15046). Briefly: flow cytometry of yeast-displayed clones with GST-KRS (1-72). Background: In flow cytometry, cells or beads pass a laser one at a time.

These are yes or no findings as the source states them, for the method shown. Some results given as binding are weak or reduced against the parent protein; the word gives no strength.

B1: N3-8 clone displayed on yeast (Fab, V domains shown)
VH: EVQLLESGGGLVQPGGSLRLSCAASGFTFSSYDMSWVRQAPGKGLEWVSAISPYSGRIYYADSVKGRFTISRDNSKNTLYLQMNSLRAEDTAVYYCARMALDFDYWGQGTLVTVSS
VL: QSVLTQPPSASGTPGQRVTISCTGSSSNIGSNYVTWYQQLPGTAPKLLIYDNSNRPSGVPDRFSGSKSGTSASLAISGLQSEDEADYYCSSFSDELGAYVFGGGTKLTVL
For B1, the binding result is reported as “binds”.
